Test results published in patent publication US20100255010A1 (Genentech, published 2010).
These are yes or no findings as the source states them, for the method shown.

Columns and labels:
Assay in all cases: direct phage ELISA on a panel of coated proteins, OD450
DR5 = target: DR5
VEGF = target: VEGF
HRG = target: HRG

Measured: binding

B1: DL7, phage-displayed Fab (Fab, V domains shown)
VH: EVQLVESGGGLVQPGGSLRLSCAASGFTLSGDWIHWVRQAPGKGLEWVGEISAAGGYTDYADSVKGRFTISADTSKNTAYLQMNSLRAEDTAVYYCAREARVSYEAAMDYWGQGTLVTVSS
VL: DIQMTQSPSSLSASVGDRVTITCRASQDLATDVAWYQQKPGKAPKLLIYSASFLYSGVPSRFSGSGSGTDFTLTISSLQPEDFATYYCQQSEPEPYTFGQGTKVEIKR
no binding: all assays above
